Reference: article PMC9720572, “Macromolecular crowding amplifies allosteric regulation of T-cell protein tyrosine phosphatase” (The Journal of Biological Chemistry, 2022)
These are yes or no findings as the source states them, for the method shown. In cells and extracts the contact can be indirect. Some results given as binding are weak or reduced against the parent protein; the word gives no strength. Where a sequence is shown, tags or fusion partners need not be part of it.

What was measured:
[1] = target: TC45 wild type fused at both termini to CFP (CFP-TC45-CFP) or to YFP (YFP-TC45-YFP), expressed in NCI-H358 cells (UniProt P17706); assay: FRET or BRET; FRET-based flow cytometry of NCI-H358 cells cotransfected with the CFP-X-CFP and YFP-X-YFP constructs, 24 h; cells cotransfected with NLS-CFP and NLS-YFP as the basis for the intermolecular FRET signal
[2] = target: TC45^E/A fused at both termini to CFP (CFP-TC45^E/A-CFP) or to YFP (YFP-TC45^E/A-YFP), expressed in NCI-H358 cells (UniProt P17706); assay: as above

| Binder | binding [1] | binding [2] |
| --- | --- | --- |
| T-cell protein tyrosine phosphatase, 45 kDa form (TC45), wild type, fused at both termini to CFP (CFP-TC45-CFP) or to YFP (YFP-TC45-YFP), bacterially expressed (enzyme, UniProt P17706-2 1-387, looked up, T-cell protein tyrosine phosphatase (TC-PTP, encoded by PTPN2), 45 kDa form TC45, full-length ORF; the printed residues 377RKRKRPR383 near the C terminus fit the 387-residue TC45 isoform; Self-association was tested with an equimolar mixture of two differently labelled copies: CFP-TC45-CFP and YFP-TC45-YFP; The His6 tag and its thrombin cleavage are described in general for the pET28 constructs …) MPTTIEREFEELDTQRRWQPLYLEIRNESHDYPHRVAKFPENRNRNRYRDVSPYDHSRVKLQNAENDYINASLVDIEEAQRSYILTQGPLPNTCCHFWLMVWQQKTKAVVMLNRIVEKESVKCAQYWPTDDQEMLFKETGFSVKLLSEDVKSYYTVHLLQLENINSGETRTISHFHYTTWPDFGVPESPASFLNFLFKVRESGSLNPDHGPAVIHCSAGIGRSGTFSLVDTCLVLMEKGDDINIKQVLLNMRKYRMGLIQTPDQLRFSYMAIIEGAKCIKGDSSIQKRWKELSKEDLSPAFDHSPNKIMTEKYNGNRIGLEEEKLTGDRCTGLSSKMQDTMEENSESALRKRIREDRKATTAQKVQQMKQRLNENERKRKRPRLTDT | binds | – |
| TC45^E/A (TC45 with 378KRKRPR383 mutated into 378EAAAPE383), fused at both termini to CFP (CFP-TC45^E/A-CFP) or to YFP (YFP-TC45^E/A-YFP), bacterially expressed (enzyme, UniProt P17706-2 1-387, looked up, The His6 tag and its thrombin cleavage are described in general for the pET28 constructs and the purification; also called C-EA-C; Y-EA-Y; not shown: His6, N-terminal, cleaved; CFP (one copy) or YFP (the other copy), N-terminal, kept; CFP (one copy) or YFP (the other copy), C-terminal, kept) MPTTIEREFEELDTQRRWQPLYLEIRNESHDYPHRVAKFPENRNRNRYRDVSPYDHSRVKLQNAENDYINASLVDIEEAQRSYILTQGPLPNTCCHFWLMVWQQKTKAVVMLNRIVEKESVKCAQYWPTDDQEMLFKETGFSVKLLSEDVKSYYTVHLLQLENINSGETRTISHFHYTTWPDFGVPESPASFLNFLFKVRESGSLNPDHGPAVIHCSAGIGRSGTFSLVDTCLVLMEKGDDINIKQVLLNMRKYRMGLIQTPDQLRFSYMAIIEGAKCIKGDSSIQKRWKELSKEDLSPAFDHSPNKIMTEKYNGNRIGLEEEKLTGDRCTGLSSKMQDTMEENSESALRKRIREDRKATTAQKVQQMKQRLNENEREAAAPELTDT | – | binds |
